Laboratory results as given in PubChem BioAssay AID504834 (National Center for Advancing Translational Sciences (NCATS), 2011).
In all, about 320,000 compounds went through this assay and about 22,000 (6.9%) were called active. This list was built around the results that the source calls inconclusive (neither active nor inactive); the mix of calls is not that of the screen. The call rests on the fitted dose curve; in most records, active means well fitted inhibition curve with a large enough effect; inconclusive means small, poorly fitted or top-dose-only effect, or another doubt; inactive means no such curve, though single readings can be large or run the other way. Potencies beside an inconclusive call are fits to weak or partial responses and may not hold up.

Experiment: Primary qHTS for delayed death inhibitors of the malarial parasite plastid, 96 hour incubation
Conditions: P. falciparum luciferase reporter growth; series mostly up to 28.7 µM
Outline: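 Plates of compound plus infected erythrocytes (2% hematocrit, 0.05% parasitemia final) incubate 96 hours, 37 C, 5% CO2. Detection reagent added; reduced luminescence from the parasites' luciferase reporter flags inhibition.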
On the % scale 0 is the no-effect control and ±100 the full control effect; potency means the concentration at half of the fitted maximal effect.

| SMILES | Potency | activity change, negative = inhibition |
| --- | --- | --- |
| CCCCCCn1c(=O)[nH]c2nc3cc(N)ccc3nc2c1=O | inconclusive: 11.7 µM [inhibitor, single point] |  |
| Cc1ccc2nc(-c3ccncc3)cc(C(=O)N3CCC4(CC3)OCCO4)c2c1 | inconclusive: 9.28 µM [inhibitor, partial curve, poor fit] |  |
| CN=Cc1c(NC)nc2c(C)cccn2c1=O | inconclusive: 2.08 µM [inhibitor, partial curve, poor fit] |  |
| Cc1cc(C)c(NC(=O)CNC(=O)c2ccc3c(=O)n4c(nc3c2)CCC4)c(C)c1 | inconclusive: 5.22 µM [inhibitor, partial curve] |  |
| COC(=O)c1cc(CSc2nnc(-c3ccccc3)c(-c3ccccc3)n2)oc1C | inconclusive: 11.7 µM [inhibitor, single point] |  |
| c1coc(-c2nnc(NC3=NCCC3)o2)c1 | inconclusive: 3.29 µM [inhibitor, partial curve] |  |
| Cc1nc(NCCc2ccc(F)cc2)c2nnn(Cc3ccccc3)c2n1 | inconclusive: 11.7 µM [inhibitor, single point] |  |
| O=C(CNC(=O)c1ccco1)OCc1cccc(Cl)c1 |  | inactive: 0.503% [at 5.75 µM] |
| CCOC(=O)C(=Cc1c[nH]c2ccc(S(=O)(=O)N(C)C)cc12)C(=O)OCC | inconclusive: 9.28 µM [inhibitor, single point] |  |
| COc1ccc(S(=O)(=O)N2c3ccccc3OCC2C(C)(C)C)cc1 (configuration not stated) | active: 14.7 µM |  |
| Cc1ccc(NC(=O)COc2ccc(/C=C3/NC(=O)NC3=O)cc2)cc1 | inactive |  |
| Cc1ccc(CSc2ncnc3onc(C)c23)cc1 | inconclusive: 13.1 µM [inhibitor, single point] |  |
| COc1ccccc1/C=C\C=N\NC(=O)CCn1nnc2ccccc21 | inconclusive: 0.329 µM [inhibitor, partial curve, poor fit] |  |
| CCCCC(=O)O[C@H]1CC[C@H]2[C@@H]3CCc4cc(O)ccc4[C@H]3CC[C@]12C | inconclusive: 18.5 µM [inhibitor, single point] |  |
| COc1ccc(-n2cc(CNC3CCOCC3)c(-c3cccc(F)c3)n2)cc1 | inconclusive: 13.1 µM [inhibitor, single point] |  |
| CCOC(=O)Cn1c(C)[n+](CC(=O)c2ccccc2)c2ccccc21 | active: 5.22 µM |  |
| CCOC(=O)C1CCN(C(=O)C2CCCN2S(=O)(=O)c2ccc(Cl)cc2)CC1 (configuration not stated) | active: 10.4 µM |  |
| Cc1cc(C)cc(N(CC(=O)N2CCc3ccccc32)S(=O)(=O)c2c(C)noc2C)c1 | inconclusive: 5.86 µM [inhibitor, partial curve] |  |
| COCCOC(=O)c1[nH]c2c(c1C)C(=O)CC(c1ccc(OC)c(OC)c1)C2 (configuration not stated) | inactive |  |
| Cc1ccc2c(c1)N(CC(=O)NC1CCC(C)CC1)C(=O)c1cccnc1O2 (configuration not stated) | inconclusive: 13.1 µM [inhibitor, partial curve, poor fit] |  |
| COc1ccccc1N(C)S(=O)(=O)c1ccc(C(=O)OCC(=O)NCc2ccco2)cc1 |  | inactive: 4.37% [at 5.75 µM] |
| COc1ccc(S(=O)(=O)N2CCN(CC(=O)NCC3(N4CCOCC4)CCCCC3)CC2)cc1 | inconclusive: 16.5 µM [inhibitor, partial curve, poor fit] |  |
| COc1ccc(-c2nnc(-c3ccc(C)cc3)o2)cc1 | inactive |  |

| SMILES | Potency | activity change, negative = inhibition |
| --- | --- | --- |
| CC(=O)Nc1ccc(S(=O)(=O)Nc2ccccc2C(=O)N2CCCC2)cc1 | inactive |  |
| O=C(c1cc(-c2ccco2)nc2ccccc12)N1CCCC(C(F)(F)F)C1 (configuration not stated) | inconclusive: 18.5 µM [inhibitor, single point] |  |
| NC(=O)c1cc2ccccc2o/c1=N\NC(=O)c1ccco1 | inactive |  |
| O=C(CCCOc1ccccc1)n1nnc2ccccc21 | inconclusive: 3.29 µM [inhibitor, full curve] |  |
| O=[N+]([O-])c1ccc(NC(=S)N2CCN(c3ccccn3)CC2)cc1 | inactive |  |
| COCCNC(=O)CN(C(=O)c1ccc(N2CCCC2)nc1)c1ccc(F)c(Cl)c1 | inconclusive: 2.94 µM [inhibitor, partial curve, poor fit] |  |
| CC(C)(C)N(Cc1ccccc1)C(=O)COC(=O)c1ccccc1SCC(=O)N1CCCC1 | inconclusive: 8.28 µM [inhibitor, partial curve] |  |
| CC(C)(C)c1ccc(C2SCC(=O)N2c2cccc(C(=O)O)c2)cc1 (configuration not stated) | inconclusive: 10.4 µM [inhibitor, single point] |  |
| O=c1[nH]c2ccc(S(=O)(=O)N3CCCCC3)cc2[nH]c1=O | inconclusive: 11.7 µM [inhibitor, single point] |  |
| Cc1cccc(Nc2nc(-c3sc(C)nc3C)cs2)c1 | inconclusive: 13.1 µM [inhibitor, single point] |  |
| CCCc1nnc(SCC(=O)NC2CC2)n1CC | inactive |  |
| COC(=O)c1sc(N/N=C/c2ccc(C(C)C)cc2)nc1C | inconclusive: 16.5 µM [inhibitor, partial curve, poor fit] |  |
| CNc1ncc(-c2nnnn2-c2ccccc2)c(-c2ccccc2)n1 | inconclusive: 5.22 µM [inhibitor, partial curve] |  |
| O=C(O)Cc1ccc(NC(=O)c2cnccn2)cc1 |  | inactive: -3.44% [at 5.75 µM] |
| COc1cc(CC2COC(=O)C2(O)Cc2ccc(O)c(OC)c2)ccc1O (configuration not stated) | inactive |  |
| COc1cc(SC)ccc1C(=O)N(Cc1ccccc1)c1ccccc1 | inconclusive: 14.7 µM [inhibitor, single point] |  |
| Cc1cccc(NC(=O)COc2ccccc2C(=O)NC(C)c2ccccc2)c1 (configuration not stated) | active: 9.28 µM |  |
| CCOc1ccc(-n2c(SCC(=O)O)nc3sc4c(c3c2=O)CCCC4)cc1 | inconclusive: 18.5 µM [inhibitor, single point] |  |
| CCOc1cc(N2CCOCC2)c(OCC)cc1NC(=O)COC(=O)COc1cc(C)cc(C)c1 | inconclusive: 10.4 µM [inhibitor, partial curve] |  |
| CCCCC(=O)Nc1ccc(C(=O)NNC(=O)CCCOc2ccc(Cl)cc2Cl)cc1 | inconclusive: 18.5 µM [inhibitor, single point] |  |
| O=C1CSC(=S)N1/N=C/c1ccc(O)c(O)c1O | inconclusive: 10.4 µM [inhibitor, partial curve, poor fit] |  |
| O=[N+]([O-])c1ccc(Cl)c(/C=N/N2CCN(Cc3ccc(Cl)cc3)CC2)c1 | inconclusive: 0.233 µM [inhibitor, full curve, poor fit] |  |
| O=C1CC(C(=O)Nc2ccc(Cl)cc2[N+](=O)[O-])C2(CCCCC2)O1 (configuration not stated) | inactive |  |

| SMILES | Potency | activity change, negative = inhibition |
| --- | --- | --- |
| CCc1ccc(-n2c(SCC(=O)N3Cc4ccccc4CC3C(=O)O)nnc2-c2ccncc2)cc1 (configuration not stated) | inconclusive: 13.1 µM [inhibitor, partial curve] |  |
| N#CCCN(NC1=NS(=O)(=O)c2ccccc21)C(=O)c1ccccc1Br | active: 3.29 µM |  |
| CCOC(=O)c1cnn(C(=O)c2ccccc2)c1N | inactive |  |
| Cc1[nH]c2ccccc2c1/C=N/NC(=O)c1cccc(S(=O)(=O)Nc2ccccc2Cl)c1 | inconclusive: 2.08 µM [inhibitor, single point] |  |
| COc1ccc(OC)c(N/C(=N/C(=S)Nc2ccccc2)Nc2nc(C)cc(C)n2)c1 | inconclusive: 1.04 µM [inhibitor, full curve, poor fit] |  |
| O=C1CC(N2CCC(O)CC2)C(=O)N1c1ccc(Br)cc1 (configuration not stated) | inactive |  |
| CCOC(=O)N1CCN(C(=O)Cc2ccccc2OC)CC1 | inconclusive: 18.5 µM [inhibitor, single point] |  |
| O=C(COc1ccccc1)NC(=S)Nc1cccc2cc(O)ccc12 | inconclusive: 14.7 µM [inhibitor, single point] |  |
| Cc1cc(C)nc(N/N=C/c2cccc([N+](=O)[O-])c2)n1 | inactive |  |
| Cc1cc(N)n2ncc(-c3ccc(Cl)cc3)c2n1 | inconclusive: 2.62 µM [inhibitor, partial curve, poor fit] |  |
| O=C(Nc1nc(-c2cccnc2)cs1)c1cccc([N+](=O)[O-])c1 | inconclusive: 18.5 µM [inhibitor, single point] |  |
| Cc1cc(C)cc(NC(=O)NCC(O)COc2ccc([N+](=O)[O-])cc2)c1 (configuration not stated) | inconclusive: 9.28 µM [inhibitor, partial curve, poor fit] |  |
| C=CCc1c(C)nc(-c2ccccc2)nc1Nc1ccccc1O | inconclusive: 13.1 µM [inhibitor, single point] |  |
| COC(=O)C1CN(S(=O)(=O)c2ccccc2)CCN1S(=O)(=O)c1ccccc1 (configuration not stated) | inconclusive: 6.57 µM [inhibitor, partial curve, poor fit] |  |
| COc1ccc(CNC(=O)CCCC2=NS(=O)(=O)c3ccccc3N2)cc1 | active: 10.4 µM |  |
| CN(Cc1cnccn1)Cc1cn(Cc2ccccc2)nc1-c1ccc2c(c1)OCO2 | inconclusive: 16.5 µM [inhibitor, single point] |  |
| Cc1ccc(Nc2nc(CSc3nnc(-c4ccncc4)n3-c3ccccc3C)cs2)cc1 | inconclusive: 10.4 µM [inhibitor, single point] |  |
| COCCCn1nnnc1SCC(=O)Nc1ccc2c(c1)OCCO2 | active: 13.1 µM |  |
| FC(F)Sc1ccc(-n2cc(-c3ccc(Cl)cc3)[n+]3c2CCC3)cc1 | inconclusive: 0.738 µM [inhibitor, full curve, poor fit] |  |
| COc1ccc(CCn2c(-c3ccc(Cl)cc3)n[nH]c2=S)cc1OC | inactive |  |
| COc1ccc(CCNC(=O)CN(C2CCCCC2)S(C)(=O)=O)cc1OC | inconclusive: 18.5 µM [inhibitor, single point] |  |

3 of the compounds above, tab-delimited.
SMILES	Potency	activity change, negative = inhibition
CCOC(=O)c1cnn(C(=O)c2ccccc2)c1N	inactive	
Cc1[nH]c2ccccc2c1/C=N/NC(=O)c1cccc(S(=O)(=O)Nc2ccccc2Cl)c1	inconclusive: 2.08 µM [inhibitor, single point]	
COc1ccc(OC)c(N/C(=N/C(=S)Nc2ccccc2)Nc2nc(C)cc(C)n2)c1	inconclusive: 1.04 µM [inhibitor, full curve, poor fit]	
